Several values for one entry are separate records, joined by “and”; a condition that tells them apart may be missing. Equal values may be shown once. ± gives the standard deviation of the averaged measurements. The list shows a part of the results. This data set is noisy: repeats of one test often differ as much as different tests do.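 Assays used MDA-MB-231 triple-negative breast cancer cells and their brain-metastatic line MDA-MB-231BRM, stably carrying empty vector, full-length GLI1 or truncated tGLI1. After 48 h, viability was read with CellTiter-Blue and normalized to 1% DMSO vehicle. tGLI1 selectivity meant viability fell 20% more in tGLI1 cells than in vector and GLI1 cells.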
Legend:
Assay in all cases: cell viability relative to vehicle (DMSO) control (fraction); higher = more viable cells (less growth inhibition)
Conditions in all cases: treatment time 48 h
MDA-MB-231 GLI1 = tested on: MDA-MB-231 GLI1
MDA-MB-231 Vector = tested on: MDA-MB-231 Vector
MDA-MB-231 tGLI1 = tested on: MDA-MB-231 tGLI1
MDA-MB-231BRM GLI1 = tested on: MDA-MB-231BRM GLI1
MDA-MB-231BRM Vector = tested on: MDA-MB-231BRM Vector
MDA-MB-231BRM tGLI1 = tested on: MDA-MB-231BRM tGLI1

SMILES	cell viability (MDA-MB-231 GLI1; 0.05 µM)	cell viability (MDA-MB-231 GLI1; 0.5 µM)	cell viability (MDA-MB-231 GLI1; 5 µM)	cell viability (MDA-MB-231 Vector; 0.05 µM)	cell viability (MDA-MB-231 Vector; 0.5 µM)	cell viability (MDA-MB-231 Vector; 5 µM)	cell viability (MDA-MB-231 tGLI1; 0.05 µM)	cell viability (MDA-MB-231 tGLI1; 0.5 µM)	cell viability (MDA-MB-231 tGLI1; 5 µM)	cell viability (MDA-MB-231BRM GLI1; 0.05 µM)	cell viability (MDA-MB-231BRM GLI1; 0.5 µM)	cell viability (MDA-MB-231BRM GLI1; 5 µM)	cell viability (MDA-MB-231BRM Vector; 0.05 µM)	cell viability (MDA-MB-231BRM Vector; 0.5 µM)	cell viability (MDA-MB-231BRM Vector; 5 µM)	cell viability (MDA-MB-231BRM tGLI1; 0.05 µM)	cell viability (MDA-MB-231BRM tGLI1; 0.5 µM)	cell viability (MDA-MB-231BRM tGLI1; 5 µM)
N#CC[C@H](C1CCCC1)n1cc(-c2ncnc3[nH]ccc23)cn1	1.25 ± 0.05	1.3 ± 0.13	1.69 ± 0.2	1.44 ± 0.66	1.29 ± 0.048	1.57 ± 0.25	1.14 ± 0.09	1.3 ± 0.072	1.36 ± 0.019	1.11 ± 0.073	1.05 ± 0.068	1 ± 0.078	1.07 ± 0.069	1.04 ± 0.025	1.03 ± 0.096	1.03 ± 0.019	0.871 ± 0.19	0.904 ± 0.34
CCC(=O)NCC[C@@H]1CCc2ccc3c(c21)CCO3 [Ramelteon (TAK-375)]	1.07	1.15	1.13	1.09	0.956	1	1	1.09	1.09	1.03	1.01	0.963	1	1	0.981	1.08	1.01	1.03
Cn1cc(-c2cnn3c(N)c(Br)c([C@@H]4CCCNC4)nc23)cn1	1.14	1.19	0.537	1.27	1.17	0.949	1.25	1.13	0.744	0.993	1.05	1.11	1.07	1.04	1.06	1.01	1.1	1.04
COc1cc([C@@H]2c3cc4c(cc3[C@@H](O[C@@H]3O[C@@H]5CO[C@@H](C)O[C@H]5[C@H](O)[C@H]3O)[C@H]3COC(=O)[C@H]23)OCO4)cc(OC)c1O [Etoposide (VP-16)]	0.86	0.682	0.313	0.834	0.711	0.242	0.96	0.741	0.24	1	1.04	0.833	0.916	0.998	1	0.972	1.09	1.07
CC1=C(C(=O)Nc2cc3cn[nH]c3cc2F)C(c2ccc(C(F)(F)F)cc2)CC(=O)N1 (stereo unspecified)	1.27	1.18	0.454	1.61	1.11	0.913	1.15	0.935	1.05	1.18	0.659	0.975	1.27	1.12	0.968	1.03	1.22	0.973
COCC(=O)NC/C=C/c1ccc2ncnc(Nc3ccc(Oc4ccc(C)nc4)c(C)c3)c2c1	1.5	1.78	1.29	1.4	1.33	1.04	1.19	1.43	1.08	0.96	1	0.935	1.02	0.977	0.949	0.995	0.895	0.931
C[C@@H]1CN(CC(=O)Nc2ccc3c(c2)Cc2cccc(-c4cc(=O)cc(N5CCOCC5)o4)c2S3)C[C@H](C)O1	1.2	1.1	0.828	1.52	1.05	0.606	1.01	1.13	0.823	1.08	0.494	0.605	0.592	0.858	0.613	0.926	1.03	0.631
N#C/C(=C(/N)Sc1ccc(N)cc1)c1ccccc1C(F)(F)F	1.37	1.67	1.32	1.78	1.3	0.891	1.18	1.39	1.05	0.937	0.945	1.02	0.964	0.921	1.07	0.936	0.96	1.04
O=C(NCCCNc1nc(Nc2cccc(NC(=O)N3CCCC3)c2)ncc1I)c1cccs1	1.4	1	0.846	1.97	1.12	0.581	1.08	1.09	0.572	1.17	1.12	0.81	1.15	1.04	0.874	1.02	0.914	0.734
C=CC(=O)Nc1cccc(Oc2nc(Nc3ccc(N4CCN(C)CC4)cc3)ncc2Cl)c1	1.28	1.04	0.363	0.683	0.91	0.3	0.825	1	0.314	1.06	0.993	0.985	1.01	1.01	0.979	1.04	1.04	0.956
Cc1[nH]nc2ccc(-c3cncc(OC[C@@H](N)Cc4ccccc4)c3)cc12	0.686	0.446	0.0699	0.795	0.474	0.168	1.02	0.621	0.0973	1.05	1.23	0.957	1.12	1.14	0.914	1.05	1.17	0.829
Cc1ccc(Nc2nccc(N(C)c3ccc4c(C)n(C)nc4c3)n2)cc1S(N)(=O)=O [Pazopanib]	0.664 ± 0.98	1.19 ± 0.51	0.82 ± 0.054	1.28 ± 0.14	1.22 ± 0.37	0.983 ± 0.14	1.33 ± 0.037	1.09 ± 0.38	1.06 ± 0.013	1.02 ± 0.016	0.96 ± 0.061	0.95 ± 0.11	1.03 ± 0.11	0.999 ± 0.016	0.973 ± 0.058	0.9593 ± 0.0033	0.976 ± 0.045	0.949 ± 0.1
COc1cc2ncnc(Nc3ccc(F)c(Cl)c3)c2cc1OCCCN1CCOCC1 [Gefitinib (Iressa)]	1.39	1.06	1.16	1.51	1.25	1.35	1.26	1.1	1.19	0.979	1	0.629	0.993	0.918	0.686	0.999	0.921	0.756
CCc1cnn2c(NCc3ccc[n+]([O-])c3)cc(N3CCCC[C@H]3CCO)nc12	0.161	0.189	0.151	0.273	0.279	0.0766	0.181	0.2	0.249	1.04	1.03	1.05	0.986	0.993	1.01	0.985	0.954	0.95
CN(c1ncccc1CNc1nc(Nc2ccc3c(c2)CC(=O)N3)ncc1C(F)(F)F)S(C)(=O)=O	1.31 and 0.918	1.44 and 1.21	0.158 and 0.142	1.31 and 0.747	1.5 and 1.09	0.294 and 0.261	1.47 and 0.888	1.34 and 1.19	0.166 and 0.172	1.07	1 and 0.953	0.764 and 0.74	0.994 and 1.1	1.06 and 0.948	0.764 and 0.714	1.08 and 0.982	1.02 and 0.926	0.718 and 0.674
Cn1cnc2c(F)c(Nc3ccc(Br)cc3Cl)c(C(=O)NOCCO)cc21 [Selumetinib (AZD6244)]	1.01	1.11	0.795	0.894	0.658	0.468	0.777	0.934	0.555	0.941	1.01	0.939	0.974	0.937	0.97	0.927	0.952	0.723
Cc1cc(Nc2nc(N[C@@H](C)c3ccc(F)cc3)c(C#N)cc2F)n[nH]1	1.39	0.596	0.464	1.42	0.581	0.448	1.27	0.62	0.45	1.14	1.36	0.915	1.14	1.24	0.96	0.661	1.25	0.854
Cn1cc(C2=C(c3ccc(Cl)cc3Cl)C(=O)NC2=O)c2ccccc21	1.5	1.76	1.4	1.41	1.31	1.02	1.21	1.4	1.05	0.89	0.959	0.895	0.944	0.976	0.981	0.958	0.885	0.954
CCNc1nc(Nc2cc(F)c(C(=O)N3CCOCC3)cc2OC)ncc1C(F)(F)F	1.31	1.87	0.802	0.705	0.71	0.292	0.675	0.758	0.468	0.429	0.375	0.266	0.483	0.471	0.245	0.756	0.545	0.447
COc1cc2nccc(Oc3ccc(NC(=O)NC4CC4)c(Cl)c3)c2cc1C(N)=O [Lenvatinib (E7080)]	1.55	1.46	1.28	1.47	1.22	1.02	1.07	1.55	0.89	0.992	0.995	0.971	0.981	1.07	0.94	1.08	0.975	0.927
C[C@H](Nc1ncnc2[nH]cnc12)c1cc2ccc(F)cc2nc1-c1ccccn1	1.15	1.86	1.18	0.755	0.615	0.594	0.682	0.714	0.773	0.48	0.475	0.367	0.586	0.461	0.399	0.759	0.589	0.653
CCN(CC)CCNC(=O)c1c(C)[nH]c(/C=C2\C(=O)Nc3ccc(F)cc32)c1C [Sunitinib Malate (Sutent)]	1.57	1.41	0.469	1.78	1.27	0.405	1.46	1.2	0.379	1.05	1.08	0.539	1.02	0.999	0.665	1.04	1.01	0.698
Cn1cc(-c2ccc3nnc(C(F)(F)c4ccc5ncccc5c4)n3n2)cn1	1.51	1.5	1.47	1.48	1.24	1.16	1.23	1.54	1.07	0.988	1.03	0.941	0.964	1.05	0.933	1.02	0.932	0.924
O=C1c2ccc(Nc3ccc(F)cc3F)cc2CCc2ccc(OC[C@H](O)CO)cc21 [Skepinone-L]	1.52	1.69	0.705	1.46	1.43	0.912	1.34	1.52	0.956	1.08	1	0.973	1.17	1.06	1.02	0.978	1.04	0.949
Nc1nc(N)c2nc(-c3cccc(O)c3)cnc2n1	0.413	0.99	0.392	0.798	1.09	0.629	0.986	1.04	0.653	0.973	0.861	0.798	1.01	0.921	0.761	1.03	0.939	0.772
c1cncc(CN2CCC(n3ncc4c(N5CCOCC5)nc(-c5ccc6[nH]ccc6c5)nc43)CC2)c1	1.21	1.03	0.0842	1.19	1.15	0.233	1.24	1.05	0.107	0.995	0.9	0.609	0.929	0.871	0.602	1.03	0.823	0.636
O=c1cc(CN2CCOCC2)occ1OCCCCCSc1ccnc2cc(C(F)(F)F)ccc12	2.26	2.92	2.34	1.43	1.43	1.49	1.46	1.5	1.6	0.826	0.799	0.656	0.872	0.669	0.708	1.18	0.705	1.07

Among those listed so far, five contain a CF3 group.
SMILES	cell viability (MDA-MB-231 GLI1; 0.05 µM)	cell viability (MDA-MB-231 GLI1; 0.5 µM)	cell viability (MDA-MB-231 GLI1; 5 µM)	cell viability (MDA-MB-231 Vector; 0.05 µM)	cell viability (MDA-MB-231 Vector; 0.5 µM)	cell viability (MDA-MB-231 Vector; 5 µM)	cell viability (MDA-MB-231 tGLI1; 0.05 µM)	cell viability (MDA-MB-231 tGLI1; 0.5 µM)	cell viability (MDA-MB-231 tGLI1; 5 µM)	cell viability (MDA-MB-231BRM GLI1; 0.05 µM)	cell viability (MDA-MB-231BRM GLI1; 0.5 µM)	cell viability (MDA-MB-231BRM GLI1; 5 µM)	cell viability (MDA-MB-231BRM Vector; 0.05 µM)	cell viability (MDA-MB-231BRM Vector; 0.5 µM)	cell viability (MDA-MB-231BRM Vector; 5 µM)	cell viability (MDA-MB-231BRM tGLI1; 0.05 µM)	cell viability (MDA-MB-231BRM tGLI1; 0.5 µM)	cell viability (MDA-MB-231BRM tGLI1; 5 µM)
CC1=C(C(=O)Nc2cc3cn[nH]c3cc2F)C(c2ccc(C(F)(F)F)cc2)CC(=O)N1 (stereo unspecified)	1.27	1.18	0.454	1.61	1.11	0.913	1.15	0.935	1.05	1.18	0.659	0.975	1.27	1.12	0.968	1.03	1.22	0.973
N#C/C(=C(/N)Sc1ccc(N)cc1)c1ccccc1C(F)(F)F	1.37	1.67	1.32	1.78	1.3	0.891	1.18	1.39	1.05	0.937	0.945	1.02	0.964	0.921	1.07	0.936	0.96	1.04
CN(c1ncccc1CNc1nc(Nc2ccc3c(c2)CC(=O)N3)ncc1C(F)(F)F)S(C)(=O)=O	1.31 and 0.918	1.44 and 1.21	0.158 and 0.142	1.31 and 0.747	1.5 and 1.09	0.294 and 0.261	1.47 and 0.888	1.34 and 1.19	0.166 and 0.172	1.07	1 and 0.953	0.764 and 0.74	0.994 and 1.1	1.06 and 0.948	0.764 and 0.714	1.08 and 0.982	1.02 and 0.926	0.718 and 0.674
CCNc1nc(Nc2cc(F)c(C(=O)N3CCOCC3)cc2OC)ncc1C(F)(F)F	1.31	1.87	0.802	0.705	0.71	0.292	0.675	0.758	0.468	0.429	0.375	0.266	0.483	0.471	0.245	0.756	0.545	0.447
O=c1cc(CN2CCOCC2)occ1OCCCCCSc1ccnc2cc(C(F)(F)F)ccc12	2.26	2.92	2.34	1.43	1.43	1.49	1.46	1.5	1.6	0.826	0.799	0.656	0.872	0.669	0.708	1.18	0.705	1.07

— the supplement of paper PMC9454738
